Laboratory results from patent US20160076107A1.
Results are given in words; binding and its absence hold for the method and conditions named. Binding seen in cells or lysates may run through a third protein. Some entries that bind do so weakly or less than the wild type.

What was measured:
[1] = molecular target: GST-protein-fused Rho-binding domain of Rhotekin (GST-RBD) fixed on glutathione sepharose beads (UniProt Q9BST9); assay: GST-RBD (Rhotekin) pull-down from NIH-3T3 lysate, western blot
[2] = molecular target: GST-protein-fused Rho-binding domain of Rhotekin (GST-RBD) fixed on glutathione sepharose beads (UniProt Q9BST9); assay: GST-RBD (Rhotekin) pull-down from NIH-3T3 cells overexpressing wild-type and G17V RHOA together, western blot

wild-type RHOA (ras homolog family member A) protein, human (from UniProt P24406 1-193) (enzyme)
binding [1]: binds | binding [2]: binds
